Here are results for 26 molecules from the supplement of paper PMC10727501.

Conditions in all cases: 10 µM; pre-incubation: 30-90 min
Experiment [1] relates to Danio rerio larvae (5 dpf, TLF). The experiment can be described thus: OMR-Perf (SSMD vs DMSO vehicle); higher = higher than vehicle (e.g. higher dark-flash O-bend response probability, or better optomotor performance).
Experiment [2] shares this test system. The experiment can be described thus: Prob-Test (SSMD vs DMSO vehicle); higher = higher than vehicle (e.g. higher dark-flash O-bend response probability, or better optomotor performance).
Experiment [3] has the same test system. The experiment can be described thus: Prob-Naive (SSMD vs DMSO vehicle); higher = higher than vehicle (e.g. higher dark-flash O-bend response probability, or better optomotor performance).
For experiment [4] the test system is unchanged. The experiment can be described thus: Prob-Train (SSMD vs DMSO vehicle); higher = higher than vehicle (e.g. higher dark-flash O-bend response probability, or better optomotor performance).

This is one part of the list. Single values are uncertain here, since repeats match poorly.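 Free-swimming zebrafish larvae were scored for O-bend response probability to dark flashes (naive: first five; training: remaining flashes of four 60-flash blocks; test: later 60-flash block) and for turning toward alternating leftward/rightward LED motion (OMR). Six treated larvae were compared with sixty 0.1% DMSO controls; |SSMD|≥2 defined a hit.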

In the case of `CC(C)CCN1c2nc(Nc3cc(F)c(O)c(F)c3)ncc2N(C)C(=O)C1C` (centres undefined), the OMR-Perf in experiment [1] was -0.325. In experiment [2], this molecule came in with a Prob-Test of 0.718. This molecule returned a Prob-Naive in experiment [3] of -0.31. In experiment [4], this molecule came in with a Prob-Train of -0.444.

Turning to `O=C(NNc1ccccc1)c1ccncc1`, in experiment [1], the OMR-Perf stood at 0.765. This molecule also had a Prob-Test in experiment [2] of 0.547. In experiment [3], the Prob-Naive came out at 0.118. For the same molecule, the Prob-Train in experiment [4] stood at 0.639.

In experiment [1], `C[C@@H]1c2cccc(O)c2C(=O)C2=C(O)[C@]3(O)C(=O)C(C(N)=O)=C(O)[C@H](N(C)C)[C@@H]3[C@H](O)[C@@H]21.Cl` [Doxycycline HCl] yielded an OMR-Perf of -0.798. This molecule also gave a Prob-Test in experiment [2] of -0.272. Further, the Prob-Naive in experiment [3] was 0. Further, the Prob-Train in experiment [4] is -0.328.

In turn, `CCC[C@H](NC(=O)[C@H]1[C@H]2CCC[C@H]2CN1C(=O)[C@@H](NC(=O)[C@@H](NC(=O)c1cnccn1)C1CCCCC1)C(C)(C)C)C(=O)C(=O)NC1CC1` [Telaprevir (VX-950)] registered an OMR-Perf in experiment [1] of 0.422. The molecule also had a Prob-Test in experiment [2] of 0.0338. Also, in experiment [3], the Prob-Naive was 0.176. For the same molecule, the Prob-Train in experiment [4] came to 0.22.

In experiment [1], `Cn1nnc2c(C(N)=O)ncn2c1=O` [Temozolomide] displayed an OMR-Perf of 0.525. In experiment [2], the Prob-Test was found to be 0.262. Moreover, the Prob-Naive in experiment [3] came out at 0.454. For the same molecule, the Prob-Train in experiment [4] was -0.177.

The molecule `O=C(O)/C=C\C(=O)O.O=C(c1ccc(OCCCc2c[nH]cn2)cc1)C1CC1` [Ciproxifan] yielded an OMR-Perf in experiment [1] of -0.39. Also, in experiment [2], the Prob-Test was -0.0521. Further, the Prob-Naive in experiment [3] was -0.11. In experiment [4], this molecule registered a Prob-Train of 0.0792.

As for `CCN(Cc1ccncc1)C(=O)C(CO)c1ccccc1` (centres undefined) [Tropicamide], in experiment [1], the OMR-Perf is -0.176. Further, the Prob-Test in experiment [2] was -0.533. In experiment [3], this molecule came in with a Prob-Naive of 0.357. The molecule also came in with a Prob-Train in experiment [4] of -0.215.

Take `CC1(C)O[C@@H]2C[C@H]3[C@@H]4CCC5=CC(=O)C=C[C@]5(C)[C@]4(F)[C@H](O)C[C@]3(C)[C@@]2(C(=O)CO)O1` [Triamcinolone Acetonide]: the OMR-Perf in experiment [1] was 0.655. The molecule also registered a Prob-Test in experiment [2] of 0.0274. The molecule also displayed a Prob-Naive in experiment [3] of 0.121. In experiment [4], this molecule displayed a Prob-Train of 0.575.

As for `CNC(=O)c1ccc2cc(C3(O)CCn4cncc43)ccc2c1` (centres undefined) [TAK-700 (Orteronel)], in experiment [1], the OMR-Perf was -0.701. In experiment [2], this molecule displayed a Prob-Test of -0.833. In addition, in experiment [3], the Prob-Naive came out at 0.587. The molecule further gave a Prob-Train in experiment [4] of -0.463.

In experiment [1], `C/C=C1/[C@H]2C=C(C)C[C@]1(N)c1ccc(=O)[nH]c1C2` [(-)-Huperzine A (HupA)] registered an OMR-Perf of -0.754. The molecule also had a Prob-Test in experiment [2] of -0.119. The molecule also returned a Prob-Naive in experiment [3] of -0.296. Further, the Prob-Train in experiment [4] came out at 0.0806.

`CCCCc1nc(Cl)c(CO)n1Cc1ccc(-c2ccccc2-c2nnn[nH]2)cc1.[K]` [Losartan Potassium (DuP 753)]: the OMR-Perf in experiment [1] was -0.467. Moreover, the Prob-Test in experiment [2] is -0.274. Moreover, the Prob-Naive in experiment [3] was determined as 0.1. Further, the Prob-Train in experiment [4] was -0.456.

In the case of `Cc1cc2c(cc1S(N)(=O)=O)S(=O)(=O)CCC2` [Meticrane], the OMR-Perf in experiment [1] worked out at 0.454. The Prob-Test in experiment [2] was 0.0812. Further, the Prob-Naive in experiment [3] was determined as 0.153. In experiment [4], this molecule yielded a Prob-Train of 0.0852.

As to `CCN(CC)CC(=O)Nc1c(C)cccc1C` [Lidocaine], the OMR-Perf in experiment [1] was -0.326. This molecule came in with a Prob-Test in experiment [2] of -0.53. Moreover, in experiment [3], the Prob-Naive turned out to be 0.182. This molecule had a Prob-Train in experiment [4] of -0.362.

In turn, `Nc1cc(F)ccc1NC(=O)/C=C/c1cnn(C/C=C/c2ccccc2)c1` showed an OMR-Perf in experiment [1] of 0.748. Moreover, the Prob-Test in experiment [2] came to 0.083. Further, the Prob-Naive in experiment [3] is -0.471. In experiment [4], this molecule returned a Prob-Train of -0.36.

Consider `CC1=NN(c2ccccc2)C(=O)C1` [Edaravone], for which the OMR-Perf in experiment [1] is -0.141. In experiment [2], this molecule displayed a Prob-Test of 0.113. This molecule also showed a Prob-Naive in experiment [3] of 0.506. The molecule also returned a Prob-Train in experiment [4] of 0.205.

Turning to `CS(=O)(=O)c1ccc([C@@H](O)[C@@H](CF)NC(=O)C(Cl)Cl)cc1` [Florfenicol], the OMR-Perf in experiment [1] was 0.237. Also, the Prob-Test in experiment [2] is -0.38. This molecule had a Prob-Naive in experiment [3] of 0.105. The molecule also came in with a Prob-Train in experiment [4] of -0.11.

On to `Cl.O=C1Cc2cc(CCN3CCN(c4nsc5ccccc45)CC3)c(Cl)cc2N1` [Ziprasidone HCl], for which, in experiment [1], the OMR-Perf is -0.67. The molecule also came in with a Prob-Test in experiment [2] of -1.3. The same molecule came in with a Prob-Naive in experiment [3] of -0.0296. Further, in experiment [4], the Prob-Train is -1.67.

With `NS(=O)(=O)Cc1noc2ccccc12` [Zonisamide], in experiment [1], the OMR-Perf was -0.0493. The same molecule yielded a Prob-Test in experiment [2] of 0.196. Moreover, the Prob-Naive in experiment [3] worked out at 0.0939. Further, the Prob-Train in experiment [4] turned out to be 0.121.

In experiment [1], `CNC[C@H](O)c1cccc(O)c1.Cl` [Phenylephrine HCl] came in with an OMR-Perf of -0.3. In experiment [2], the Prob-Test was -0.0469. In experiment [3], this molecule yielded a Prob-Naive of 0.028. This molecule yielded a Prob-Train in experiment [4] of 0.0121.

`COc1ccccc1N1CCN(CCN(C(=O)C2CCCCC2)c2ccccn2)CC1.Cl.Cl.Cl` displayed an OMR-Perf in experiment [1] of -0.933. The molecule further returned a Prob-Test in experiment [2] of -0.452. This molecule also yielded a Prob-Naive in experiment [3] of 0.028. The Prob-Train in experiment [4] was -0.638.

Take `Cc1noc(NS(=O)(=O)c2ccc(N)cc2)c1C` [Sulfisoxazole]: the OMR-Perf in experiment [1] is -0.522. In addition, in experiment [2], the Prob-Test is -0.106. In experiment [3], the Prob-Naive amounted to 0.402. In addition, the Prob-Train in experiment [4] came out at 0.0322.

The molecule `O=c1[nH]c(=O)n([C@H]2CCCO2)cc1F` yielded an OMR-Perf in experiment [1] of 0.156. Also, in experiment [2], the Prob-Test was -0.126. Further, the Prob-Naive in experiment [3] was 0.0184. Further, the Prob-Train in experiment [4] is -0.0823.

As for `O.O=c1c(O)c(-c2ccc(O)cc2O)oc2cc(O)cc(O)c12` [Morin Hydrate], in experiment [1], the OMR-Perf came to 0.361. The Prob-Test in experiment [2] was 0.0855. This molecule registered a Prob-Naive in experiment [3] of -0.141. In addition, the Prob-Train in experiment [4] is -0.366.

As for `CC(N/C(=N/C#N)Nc1ccncc1)C(C)(C)C` (centres undefined) [Pinacidil], the OMR-Perf in experiment [1] was 0.213. In experiment [2], this molecule showed a Prob-Test of 0.167. The same molecule registered a Prob-Naive in experiment [3] of 0.457. In experiment [4], this molecule returned a Prob-Train of 0.43.

In the case of `COc1cc(C(C)=O)ccc1O` [Apocynin], in experiment [1], the OMR-Perf amounted to 0.497. For the same molecule, the Prob-Test in experiment [2] was -0.0981. Besides, the Prob-Naive in experiment [3] is -0.265. In addition, the Prob-Train in experiment [4] is -0.428.

Molecule `COc1cc2c(cc1OC)CN(CCc1ccc(NC(=O)c3cc(OC)c(OC)cc3NC(=O)c3cnc4ccccc4c3)cc1)CC2` [Tariquidar] yielded an OMR-Perf in experiment [1] of 0.868. This molecule came in with a Prob-Test in experiment [2] of 0.00375. The molecule further yielded a Prob-Naive in experiment [3] of 0.0934. This molecule returned a Prob-Train in experiment [4] of 0.228.
